Measurements from “University of Dundee, Small-Polar-MMV Screening Library” (2021), ChEMBL document CHEMBL3988442.

A: 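Phenotypic screen: M. tuberculosis growth, glucose 7H9 medium, 3 days; the read-out is not stated. Concentration: 500 µM. Higher reads as more growth inhibition (inferred: compounds with an IC50 in retests scored well above the rest). About 18,000 compounds were tested under these conditions; 7.9% (about 1,400) showed 50% or more at least once.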
B: 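Growth of Mycobacterium tuberculosis over 4 days (cholesterol / DPPC medium with tyloxapol); the read-out is not stated. Concentration: 500 µM. Higher reads as more growth inhibition (inferred: compounds with an IC50 in retests scored well above the rest). Size under these conditions: about 18,000 compounds, about 900 of them at 50% or above in at least one test.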

Each number is a percent effect as filed.
How 0% and 100% were set is not recorded. Most values in the screen are low, and negative values occur.
This is an unselected part of the compounds tested.

| Compound | A | B |
|---|---|---|
| `CCc1ncc(C(=O)N2CCCC(O)(CO)CC2)cn1` (stereo not given) | 7.291 | 8.465 |
| `CC1CCN(Cc2cc(=O)n3ccsc3n2)CC1` | -10.63 | -0.95 |
| `COc1ccc(Cl)cc1C(O)CN` (stereo not given) | 20.47 | 8.178 |
| `Cc1cccc(=O)n1CCC(=O)N1CCOCC(O)C1` (stereo not given) | 0.9616 | -17.46 |
| `O=C(c1cn[nH]c1)N1CCC(O)(CN2CCCC2)CC1` | 4.528 | 6.938 |
| `COCCN(CCN(C)C)C(=O)Nc1ccncc1` | -2.214 | 2.775 |
| `NCc1ccncc1OCCC(F)(F)F` | 11.76 | -5.605 |
| `NC(=O)CN1CCC(NC(=O)c2scnc2Cl)CC1` | 8.349 | -2.833 |
| `CN(C(=O)CN)c1ccc(-c2ccccc2)cc1` | 82.28 | 76.43 |
| `CCN1CCN(C(=O)Nc2ccccc2)CC1` | 14.15 | 25.85 |
| `OCCN1CCN(c2ncnc3c2CCC3)CC1` | 6.404 | 5.682 |
| `Nc1nccnc1C(=O)NC1COc2ccccc2C1` (stereo not given) | 1.921 | 2.442 |
| `N#Cc1ccc(C(=O)N2CCCO2)nc1` | -9.548 | -12.74 |
| `COC(=O)c1c[nH]c(SCc2cnc(C)s2)n1` | 2.449 | -0.5796 |
| `O=C(C1CCCO1)N1CCN(c2ccccc2F)CC1` (stereo not given) | 39.2 | 23.51 |
| `CC(c1ccsc1)N1CCN(C(=O)CN(C)C)CC1` (stereo not given) | -4.93 | -9.18 |
| `O=S(=O)(CC(O)CO)c1cccc(C(F)(F)F)c1` (stereo not given) | 9.989 | 0.08972 |
| `Cc1csc(CNC(=O)c2ccco2)n1` | 51.96 | 21.02 |
| `Nc1nc(N)nc(CN2CCCC2c2cccs2)n1` (stereo not given) | 58 | 42.45 |
| `CN(CC(=O)N(CCC#N)CC1CCC1)S(C)(=O)=O` | 7.2 | 3.171 |
| `CCCN1CCC(NC(=O)C2=NN(C)C(=O)CC2)CC1` | 0.1803 | 7.151 |
| `Cc1cc(NC(=O)CN2CC[C@@H]3CC[C@H](C2)N3C)no1` | 10.73 | 6.401 |
| `CC(CN1CCOCC1)C(=O)NCCn1cc(Cl)cn1` (stereo not given) | -15.29 | 4.985 |
| `CCN1CCCN(c2ccccn2)CC1` | 17.25 | 11.48 |
| `CCO[C@H]1COC[C@@H]1NC(=O)c1scc2c1OCCO2` | 4.339 | -2.942 |
| `CC(C)(C)OC(=O)N1CC(O)C1` | 3.758 | 0.6489 |
| `COCCC(CO)NC(=O)NCc1cc(Cl)ccc1C` (stereo not given) | 41.42 | 11.21 |
| `CSCC(=O)NCc1ccc(C(=O)N(C)C)o1` | 3.74 | 7.282 |
| `CC(CO)(NCCS(C)(=O)=O)C1CCCCC1` (stereo not given) | 16.7 | 16.85 |
| `CCOc1ccc(NC(=O)CN2CCN(C)CC2)cc1` | 24.38 | 18.67 |
| `CC(C)(C)c1cc(=O)[nH]c(C(C)(C)N)n1` | -5.816 | -16.22 |
| `CCCn1ccc(C(N)=O)n1` | 8.366 | 15.77 |
| `Cc1ncsc1C(=O)N1CCN(C(=O)N(C)C)CC1` | -8.476 | -3.484 |
| `CN(CC(F)(F)F)C(=O)CN1CCC[C@H]1CO` | 0.368 | -19.65 |
| `CN(C)c1cc(CNC(=O)c2cncc(Br)c2)ccn1` | 18.16 | -13.57 |
| `CCNC(=O)CNC(=O)c1csc(-c2cnccn2)n1` | -5.606 | -12.73 |
| `CCN(CC)CCOc1ccc(CN)cc1OC` | -15.23 | -14.93 |
| `CCO[C@H]1CN(Cc2snnc2C(C)C)C[C@@H]1O` | 3.342 | 1.784 |
| `O=C(c1ccc(Br)cn1)N1CCC(n2ccnn2)CC1` | 29.51 | 25.87 |
| `COC(=O)C1C[C@@H](O)CN1CCSCC(C)C` (stereo not given in full) | 20.78 | 3.693 |
| `O=C(Nc1cncc(Cl)c1Cl)c1ccccn1` | 5.461 | -4.094 |
| `Cn1cc(CCN)nn1` | -4.628 | -28.48 |
| `Cn1nccc1CC(=O)OCCN1CCCCC1=O` | -15.59 | -6.95 |
| `NCc1ccc(N2CCS(=O)(=O)CC2)cc1` | 16.28 | 17.66 |
| `CN1CCCN(C(=O)CCc2ccsc2)CC1` | 39.42 | 13.08 |
| `NCCCNS(=O)(=O)c1ccc(Cl)cc1` | 44.74 | 26.14 |
| `Cn1c(=O)oc2cc(CNCCCS(C)(=O)=O)ccc21` | -31.58 | 11.59 |
| `NS(=O)(=O)c1ccc2c(c1)C(=O)CCO2` | 0.6861 | -11.15 |
| `CC(C)N(C(=O)CSc1nnc[nH]1)C(C)C` | -0.857 | 2.844 |
| `CC(=O)c1ccc(O)cc1F` | 6.537 | 16.52 |
| `COc1cc(CNCC(C)O)cc(Cl)c1OCC(N)=O` (stereo not given) | 8.036 | -0.816 |
| `NC1CCCc2sccc21` (stereo not given) | 9.066 | 10.76 |
| `COC(=O)NCC(=O)N1CCCCc2ccccc21` | 19.96 | -3.97 |
| `O=C(Cn1cc(Br)cn1)N1N=CCC1(O)C(F)(F)F` (stereo not given) | 28.47 | 22.16 |

The first 6 entries again:

* CCc1ncc(C(=O)N2CCCC(O)(CO)CC2)cn1 (stereo not given) : A: 7.291%; B: 8.465%
* CC1CCN(Cc2cc(=O)n3ccsc3n2)CC1 : A: -10.63%; B: -0.95%
* COc1ccc(Cl)cc1C(O)CN (stereo not given) : A: 20.47%; B: 8.178%
* Cc1cccc(=O)n1CCC(=O)N1CCOCC(O)C1 (stereo not given) : A: 0.9616%; B: -17.46%
* O=C(c1cn[nH]c1)N1CCC(O)(CN2CCCC2)CC1 : A: 4.528%; B: 6.938%
* COCCN(CCN(C)C)C(=O)Nc1ccncc1 : A: -2.214%; B: 2.775%